Reference: publication PMC2835750, “A Direct Interaction with NEDD1 Regulates γ-Tubulin Recruitment to the Centrosome” (PLoS ONE, 2010)
No constants are given. Whether binding was seen depends on the method and setting. Binding seen in cells or lysates may run through a third protein. Some results given as binding are weak or reduced against the parent protein; the word gives no strength.

By UniProt entry, the sequences of proteins in these tests, tags left out. Where a name states a change or a piece, a line headed by the entry shows the natural chain unless it says otherwise. Residues count along the entry.
UniProt Q8NHV4: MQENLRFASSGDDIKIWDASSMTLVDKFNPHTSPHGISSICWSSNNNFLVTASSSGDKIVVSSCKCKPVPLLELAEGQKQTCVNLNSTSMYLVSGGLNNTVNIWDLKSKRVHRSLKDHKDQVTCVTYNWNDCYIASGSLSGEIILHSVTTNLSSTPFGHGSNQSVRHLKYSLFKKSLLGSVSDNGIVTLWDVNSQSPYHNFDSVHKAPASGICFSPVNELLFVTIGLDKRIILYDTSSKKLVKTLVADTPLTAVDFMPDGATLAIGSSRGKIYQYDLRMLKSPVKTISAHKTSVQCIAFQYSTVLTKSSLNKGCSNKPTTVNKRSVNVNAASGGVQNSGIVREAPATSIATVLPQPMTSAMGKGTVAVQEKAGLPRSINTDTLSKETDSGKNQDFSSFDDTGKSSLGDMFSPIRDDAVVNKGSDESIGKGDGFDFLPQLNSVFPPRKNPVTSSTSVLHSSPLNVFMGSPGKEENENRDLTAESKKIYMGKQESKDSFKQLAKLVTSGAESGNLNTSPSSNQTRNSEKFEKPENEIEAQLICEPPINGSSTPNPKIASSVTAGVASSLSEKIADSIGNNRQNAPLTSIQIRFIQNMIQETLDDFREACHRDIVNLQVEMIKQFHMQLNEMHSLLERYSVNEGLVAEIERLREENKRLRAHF
GFP-NEDD1 (1–571): residues 1-571 of Q8NHV4
GFP-NEDD1 CTD (572–660): residues 572-660 of Q8NHV4

Experiments:
[1] = target: GFP-NEDD1 (1–571) (human) (UniProt Q8NHV4); assay: co-IP; full length Myc-NEDD1 and GFP-NEDD1 constructs co-transfected into HEK293T, GFP-NEDD1 immunoprecipitated, Myc-NEDD1 detected
[2] = target: GFP-NEDD1 CTD (572–660) (human) (UniProt Q8NHV4); assay: as above

Substance: Myc-NEDD1 full length (660 aa) (from UniProt Q8NHV4 1-660)
- binding [1]: no binding
- binding [2]: binds
